Literature values, collected in patent US20070237818A1, “Controlled-release formulation of HCV protease inhibitor and methods using the same” (priority 2005, published 2007).
Counter-ions that a name gives are not always drawn. At least one compound was matched to its structure with a doubt left.

Test system: retinal neovascularization
Details: mice; cited from earlier work

Compound	development of retinal neovascularization
CN(CCOc1ccc(CC2SC(=O)NC2=O)cc1)c1ccccn1 (centres unmarked) [rosiglitazone maleate, -5-[[4-[2-(methyl-2-pyridinylamino)ethoxy]phenyl]methyl]-2,4-thiazolidinedione, (Z)-2-butenedioate]	inhibit
Cc1c(C)c2c(c(C)c1O)CCC(C)(COc1ccc(CC3SC(=O)NC3=O)cc1)O2 (centres unmarked) [troglitazone]	inhibit
